Experimental data: the supplement of paper PMC6078165
The reference is the same well before dosing, and untreated signal decays as well.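 Fibroblast labels denote human fibroblasts, mainly primary ones from uterus (C12385, HUF), lung (H6013), bone (Hs27A), adrenal (HADF) and skin (WS1), plus mammary HMF and breast cancer-associated Hs343T. Cancer cells are basal-like or mesenchymal-like triple-negative breast cancer lines. A hit is a response shift exceeding 3x replicate standard deviation. The tissue of the other fibroblasts is not given here.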

Tested on: MDAMB436
Assay: relative JC-1 red fluorescence (viability) vs pre-drug, coculture with fibroblast (fraction); higher = more viable cancer cells
Settings: 100 µM
Experimental: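 JC-1 labelled TNBC cells cocultured 1:1 (1,500 cells each) with CellTrace Violet stained primary or stromal fibroblasts in 384-well plates in FluoroBrite medium, treated with one of 42 anticancer drugs at 0.1, 1, 10 or 100 uM. JC-1 red fluorescence (mitochondrial integrity in cancer cells only) was read by plate reader every 8 h for 72 h. Values are normalised to each well's pre-drug value. The stock of one drug was tenfold lower, so its dose labels may be too high.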

COc1cc([C@@H]2c3cc4c(cc3[C@@H](O[C@@H]3O[C@@H]5CO[C@@H](C)O[C@H]5[C@H](O)[C@H]3O)[C@H]3COC(=O)[C@H]23)OCO4)cc(OC)c1O [Etoposide]
relative JC-1 red fluorescence
Settings | 8 h | 16 h | 24 h | 32 h | 40 h | 48 h | 56 h | 64 h | 72 h
coculture fibroblast: C12385 | 0.793 | 0.775 | 0.7852 | 0.728 | 0.694 | 0.691 | 0.684 | 0.68 | 0.6845
coculture fibroblast: H6013 | 0.841 | 0.834 | 0.837 | 0.845 | 0.8316 | 0.865 | 0.83 | 0.823 | 0.785
coculture fibroblast: H6019 | 0.772 | 0.744 | 0.7472 | 0.7085 | 0.691 | 0.701 | 0.685 | 0.69 | 0.692
coculture fibroblast: H6076 | 0.718 | 0.64335 | 0.669 | 0.638 | 0.63 | 0.6158 | 0.636 | 0.64 | 0.648
coculture fibroblast: H6231 | 0.759 | 0.674 | 0.788 | 0.727 | 0.739 | 0.732 | 0.745 | 0.745 | 0.744
coculture fibroblast: HADF | 0.856 | 0.832 | 0.822 | 0.806 | 0.805 | 0.829 | 0.774 | 0.767 | 0.72
coculture fibroblast: HCFa | 0.8226 | 0.809 | 0.805 | 0.801 | 0.816 | 0.854 | 0.806 | 0.821 | 0.785
coculture fibroblast: HCPF | 0.6896 | 0.66518 | 0.704 | 0.661 | 0.657 | 0.643 | 0.636 | 0.638 | 0.638
coculture fibroblast: HHSteC | 0.8295 | 0.835 | 0.837 | 0.824 | 0.837 | 0.874 | 0.82 | 0.814 | 0.772
coculture fibroblast: HMF | 0.729 | 0.672 | 0.679 | 0.642 | 0.631 | 0.608 | 0.614 | 0.602 | 0.601
coculture fibroblast: HPFa | 0.88749 | 0.873 | 0.879 | 0.853 | 0.876 | 0.901 | 0.834 | 0.826 | 0.775
coculture fibroblast: HUF | 0.833 | 0.7827 | 0.794 | 0.73691 | 0.708 | 0.698 | 0.6863 | 0.6844 | 0.6871
coculture fibroblast: Hs5 | 0.768 | 0.7165 | 0.7219 | 0.6747 | 0.66 | 0.619 | 0.622 | 0.604 | 0.593
coculture fibroblast: Hs27A | 0.846 | 0.835 | 0.855 | 0.872 | 0.87 | 0.912 | 0.899 | 0.914 | 0.85
coculture fibroblast: Hs343T | 0.732 | 0.651 | 0.641 | 0.606 | 0.5808 | 0.548 | 0.54 | 0.5342 | 0.5239
coculture fibroblast: WS1 | 0.778 | 0.747 | 0.758 | 0.701 | 0.684 | 0.686 | 0.682 | 0.679 | 0.688
